Assay results taken from PubChem BioAssay AID1259354 (Paczesny and Yang Labs, IUPUI and University of Michigan, 2018).
The campaign covered roughly 78,000 compounds. About 1,800 (2.3%) were called active. Inconclusive means that the source gave no clear call. Such entries were picked first, then a sample of the others. Cut-off read from the data, not from the text of the source: active = inhibition above about 30%; inconclusive = mostly about 10% to 28%; inactive = weaker than that. Where a structure was tested more than once in an assay, its records may differ in their call.

Protein sequences, listed by entry. Tags and fused reporters are not part of them. Lines headed by an entry give the natural chain unless they say otherwise; changes in a name come on top.
UniProt Q01638: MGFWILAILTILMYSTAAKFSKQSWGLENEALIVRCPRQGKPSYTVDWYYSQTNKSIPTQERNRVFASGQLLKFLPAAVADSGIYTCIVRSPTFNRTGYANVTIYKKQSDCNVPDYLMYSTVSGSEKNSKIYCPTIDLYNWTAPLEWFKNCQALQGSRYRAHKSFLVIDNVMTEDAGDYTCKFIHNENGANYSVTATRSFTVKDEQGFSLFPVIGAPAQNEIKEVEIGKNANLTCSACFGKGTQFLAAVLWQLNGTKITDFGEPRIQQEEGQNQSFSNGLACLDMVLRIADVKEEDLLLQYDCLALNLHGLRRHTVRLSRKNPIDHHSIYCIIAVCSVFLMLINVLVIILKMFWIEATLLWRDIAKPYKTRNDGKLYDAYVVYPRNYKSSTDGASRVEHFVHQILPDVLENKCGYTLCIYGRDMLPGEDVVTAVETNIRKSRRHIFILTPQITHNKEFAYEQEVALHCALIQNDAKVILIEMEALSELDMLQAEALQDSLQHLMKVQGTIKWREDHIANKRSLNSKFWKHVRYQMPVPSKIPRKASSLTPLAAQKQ

target: Interleukin-1 receptor-like 1 (Homo sapiens) (UniProt Q01638); assay: blocks human ST2 binding to IL-33, primary screen, biochemical, AlphaLISA (AID 1259354); settings: AlphaLISA ST2-Fc/biotin-IL-33 interaction, 1 h; at 17 µM, active compounds read high

SMILES	inhibition	outcome
CN1C(=O)C2(CCCN(C(=O)c3cnn4cccnc34)C2)c2ccccc21 (centres undefined)	inconclusive: 12%	
COc1cc(O)c(Cc2cccc(O)c2O)c(O)c1C(=O)/C=C/c1ccccc1	inconclusive: 16%	
COCCN1C(=O)C(=O)C(=C(O)c2ccc(S(=O)(=O)N(C)C)cc2)C1c1cccc(Cl)c1 (centres undefined)	inconclusive: 11%	
Clc1ccc(CN2CCSCC2)cc1	inconclusive: 21%	
COc1ccccc1CN1CC[C@H](c2nnc(-c3cncn3C)o2)C1	inconclusive: 12%	
Cc1ccc([N+](=O)[O-])cc1S(=O)(=O)NCCOc1ccccc1	inactive	
Cn1nnc(-c2ccc(C(=O)Nc3cnc4n3CCCC4)cc2)n1	inconclusive: 14%	
C=CCN1C(=O)CSc2ccc(C(=O)N3CCN(c4ccccn4)CC3)cc21	inactive	
CC1CCN(C(=O)Cn2c(=O)n(-c3cc(F)ccc3F)c(=O)c3sccc32)CC1	inconclusive: 13%	
NC1CCCN(C(=O)c2ccc3n[nH]nc3c2)CC1 (centres undefined)	inconclusive: 29%	
Cc1c(C(=O)O)oc2ccc(S(=O)(=O)N(C)Cc3ccccc3)cc12	inconclusive: 11%	
O=C(NCCn1cc(C2CC=CCC2)nn1)c1ccccc1Cl (centres undefined)	inconclusive: 11%	
Cc1ccc(-c2nnc(-c3nc(NCCc4cccs4)c4ccccc4n3)o2)cc1	inconclusive: 17%	
O=C(Nc1ccc(=O)n2c1[C@@H]1C[C@@H](CN(C(=O)Nc3ccc(F)cc3)C1)C2)NC1CCCCC1	inactive	
O=C1[C@@H]2[C@H](C(=O)N1c1cc(Cl)ccn1)[C@H]1C=C[C@@H]2C12CC2	inactive	
Cn1c(CCC(=O)Nc2cnc3n2CCCC3)nc2cccnc21	inconclusive: 20%	
CCc1ccc(N=Cc2cc(Br)ccc2O)cc1	active: 36%	
COc1ccc(OCC(=O)NC2C3CC4CC(C3)CC2C4)cc1 (centres undefined)	inactive	
CC(C)NS(=O)(=O)c1cc(C(=O)O)cc(-c2ccc(N3CCOCC3)cc2)c1	inconclusive: 21%	
CCn1c(=O)ccc2cc(OC)ccc21	active: 31%	
O=C(Cc1ccc([N+](=O)[O-])cc1)N1CCCC1	inconclusive: 26%	
Cc1ccc(Cl)cc1NC(=O)C(C(C)C)N1C(=O)c2ccccc2C1=O (centres undefined)	inconclusive: 19%	
COc1ccc2nc3ccccc3[n+]([O-])c2c1	inconclusive: 13%	
OCCSc1nc2ccccc2s1	inactive	

Record cards, as listed above.
Cc1c(C(=O)O)oc2ccc(S(=O)(=O)N(C)Cc3ccccc3)cc12 is listed as inhibition: inconclusive: 11%
O=C(Nc1ccc(=O)n2c1[C@@H]1C[C@@H](CN(C(=O)Nc3ccc(F)cc3)C1)C2)NC1CCCCC1 is listed as inhibition: inactive
NC1CCCN(C(=O)c2ccc3n[nH]nc3c2)CC1 (centres undefined) is listed as inhibition: inconclusive: 29%

Remaining list, next part:

SMILES	inhibition	outcome
CCOC(=O)c1nn(Cc2ccccn2)c2c1CN(C(=O)c1csc(SC)n1)CC2	inconclusive: 18%	
Cc1c(CC(Cl)(Cl)Cl)c2c(n1-c1ccccc1[N+](=O)[O-])CCCC2=O	inconclusive: 12%	
O=C(Nc1cc2ccccc2oc1=O)c1ccc(Br)cc1	inconclusive: 25%	
Cc1ccc(OC2(C(=O)N[C@@H]3c4ccccc4C[C@@H]3O)CCNCC2)cc1	inconclusive: 13%	
Cc1nc2c(-c3ccc(F)cc3)c(C)nn2c(C)c1CCC(=O)NC1CCCCCC1	inconclusive: 22%	
N#Cc1nc(COc2ccc(Cl)cc2)oc1N1CCCC1	active: 73%	
COc1ccc(C(Nc2cc(C)ccn2)c2ccc3cccnc3c2O)cc1OC (centres undefined)	inconclusive: 24%	
c1ccc(-c2ccccc2OCCOCCN2CCCC2)cc1	inconclusive: 14%	
Cc1cc(NC(=O)CN2C[C@@H]3C4CCC(CC4)[C@@H]3C2)no1	inactive	
CC(=O)c1cc(C#N)c(SC/C=C/c2ccccc2)nc1C	inconclusive: 15%	
COC(=O)c1cc(C)nc(-c2ccc(C(C)N3CCCCC3)cc2)n1 (centres undefined)	inconclusive: 13%	
Cc1c(C(=O)Nc2ccccc2[N+](=O)[O-])csc1-c1ccccc1	active: 35%	
COc1ccc(NC(=O)c2cnn(-c3ccccc3)c2NC(=O)c2ccccc2F)c(OC)c1	inconclusive: 12%	
C=C(C)CN(C)C(=O)CC(c1cccc(Cl)c1)c1ccccc1O (centres undefined)	inconclusive: 13%	
O=C1OC(c2ccccc2)=C/C1=C\c1c(Cl)cccc1Cl	active: 46%	
Cn1nc(-c2ccc(Cl)cc2)c2cc(C(=O)NCc3ccc4c(c3)OCO4)sc21	inactive	
Cc1c(C(=O)NC(C)C)sc2nc(-c3ccccc3)cn12	inactive	
O=C1C(=O)N(CN2CCN(CN3C(=O)C(=O)c4ccccc43)CC2)c2ccccc21	inactive	
OC[C@H]1O[C@@H](n2cnc3c(N[C@H]4CCC[C@@H]4O)ncnc32)[C@H](O)[C@@H]1O	inconclusive: 14%	
Cc1nc(C2CCCNC2)cc(N(C)Cc2noc3c2CCCC3)n1 (centres undefined)	inconclusive: 14%	
CSc1ccc(-c2nc(CSCC(=O)N(C)CCC#N)c(C)o2)cc1	inconclusive: 12%	
CC(C)NC[C@@H](O)COc1ccc(CC(N)=O)cc1	inconclusive: 20%	
Cc1c(N=Cc2ccc(-c3ccccc3)o2)c(=O)n(-c2ccccc2)n1C	inconclusive: 27%	
c1ccc(-c2ncn(CCCCN3CCCC3)c2-c2ccncc2)cc1	inconclusive: 10%	

SMILES	inhibition	outcome
CC(C)c1noc(-c2ccc(N3CCN(CC4CC4)CC3)nc2)n1	inactive	
COc1cccc2cc(NC(=O)c3ccc(C)c(C)c3)c(=O)oc12	inactive	
COc1ccc(-c2cc(C(F)(F)F)n3nc(C(=O)N4CCCCC4)c(Cl)c3n2)cc1OC	inactive	
Cn1c(=O)c2c(nc(N3CCCCC3)n2CCSc2nc3ccccc3o2)n(C)c1=O	active: 36%	inactive
CC(C)c1ccc(NC(=O)Nc2ccccc2)cc1	inactive	
COc1ccccc1N1CCN(c2ccc([N+](=O)[O-])c3cccnc23)CC1	active: 31%	
Cc1csc(NC(=O)C(=O)N2CCCCC2CCn2cccn2)n1 (centres undefined)	inactive	
COc1ccc(C2CC(c3c(C)cc(C)[nH]c3=O)=NN2c2ccccc2)cc1 (centres undefined)	inconclusive: 10%	
CC1(C)CC2CC(C)(CN2C(=O)C2CCN(S(=O)(=O)c3cccc([N+](=O)[O-])c3)CC2)C1 (centres undefined)	inconclusive: 21%	
Cc1cc(OCC(O)CNC(C)C)ccc1Cl (centres undefined)	inactive	
Cc1cccn2c(=O)c3cc(C(=O)N4CCN(Cc5ccccc5)CC4)n(C)c3nc12	inactive	
O=[N+]([O-])c1ccc(OCc2ccccc2)cc1	inconclusive: 18%	
Cc1cc(C)n(CCCN(C)C(=O)c2cnc(C)nc2C)n1	inconclusive: 12%	
Cc1c(NS(=O)(=O)c2ccccc2[N+](=O)[O-])c(=O)n(-c2ccccc2)n1C	inactive	
CC1=C(C(=O)Nc2ccccc2)C(c2ccccn2)n2nc(-c3ccccc3)nc2N1 (centres undefined)	inactive	
CCN(CC)Cc1cnc2c(C(=O)Nc3ccc(-n4cncn4)cc3)cnn2c1	inactive	
Cc1ccc(C(=O)O/N=C(/N)c2cccnc2)cc1C	inconclusive: 14%	
Cc1ccc(-n2ncc3c(N4CCOCC4)ncnc32)c(C)c1	inconclusive: 13%	
O=c1cc(CSc2nc3ccccc3c3nc4ccccc4n23)nc2ccccn12	inactive	
O=C(C1c2ccccc2Oc2ccccc21)N1CCN=C1SCc1cccc([N+](=O)[O-])c1	inconclusive: 24%	
CSc1nc2c(c(=O)[nH]1)C(c1ccncc1)C1=C(CC(C)(C)CC1=O)N2 (centres undefined)	inactive	
CCC1Oc2ccccc2N(CC(=O)NC2CCCCCC2)C1=O (centres undefined)	inactive	
COc1ccc2nccnc2c1[N+](=O)[O-]	inconclusive: 17%	
Cc1nc(Cl)c(NC(=O)CC(C)C)c(C)c1Cl	inconclusive: 18%	

SMILES	inhibition	outcome
COc1cccc(C2C(N3C(=O)c4ccccc4C3=O)C(=O)N2c2ccc(C)c(C)c2)c1 (centres undefined)	inactive	
O=C(c1ccco1)N1C[C@H]2OC(=O)N(CCCN3CCOCC3)[C@H]2C1	inconclusive: 10%	
CC1(C)CC(=O)C2=C(C1)OC(N)=C(C#N)C2c1cccc(I)c1 (centres undefined)	inactive	
C1CCN(CCCNC2C3CC4CC(C3)CC2C4)C1 (centres undefined)	inconclusive: 11%	
O=C(NCc1ccccc1)N1CC[C@H](c2nc3ccccc3o2)C1	inconclusive: 21%	
CCCCNC(=O)CC1Sc2ccccc2NC1=O (centres undefined)	inactive	
C=C1C(C)(C)[C@H]2CC[C@]1(C(=O)N1CCCn3nc(C(=O)OC)cc3C1)C2	inconclusive: 17%	
O=C(Nc1ccc(F)c(F)c1)C1CCN(S(=O)(=O)c2cccc3cccnc23)CC1	inconclusive: 10%	
O=C(Nc1ccc2c(c1)OCO2)c1noc2c1CCCC2	inconclusive: 19%	
O=C(Nc1cccc(F)c1)c1ccc(Cl)c(Cl)c1	inactive	
CN(CC(=O)N1CCN(c2ccc(F)cc2)CC1)S(=O)(=O)c1ccc2c(c1)CCC(=O)N2	inactive	
Cc1ccc(-n2c(SCC(=O)Nc3ccc4c(c3)OCO4)nc3c(c2=O)SCC3)cc1	inconclusive: 22%	
O=C1NC(=O)C(=Cc2cccn2-c2ccc(Cl)cc2)C(=O)N1	inconclusive: 16%	
COCCNC(=S)N[C@H]1C[C@H]2C(=O)NC[C@@H](CCC(=O)N3CCOCC3)N2C1	inactive	
COc1ccccc1C(=O)Nc1ccc2oc(-c3ccccc3C)nc2c1	inconclusive: 10%	
Nc1nc2n(n1)C(c1cccc(Br)c1)CC(c1ccccc1)N2 (centres undefined)	inconclusive: 12%	
CN(Cc1ccccc1)C1=CC(=O)N(c2ccc(Cl)cc2)C1=O	inconclusive: 19%	
C[C@@H]1C(=O)O[C@H]2[C@H]1CC[C@@]1(C)Cc3sc(NS(=O)(=O)c4ccc5c(c4)CN(C(=O)C(F)(F)F)CC5)nc3[C@@H](C)[C@H]21	inconclusive: 10%	
CN(Cc1ccccc1)Cc1cc(C(=O)NCc2cccc(F)c2F)no1	inconclusive: 10%	
C[C@@H]1CC[C@@]2(C)[C@@]3(CC[C@@]2(C)C(=O)O3)[C@@]12C[C@H](c1ccoc1)OC2=O	inconclusive: 10%	
O=C1C2[C@H](C(=O)N1c1ccc(Cl)c(C(F)(F)F)c1)[C@H]1C=C[C@@H]2C12CC2 (some centres undefined)	inactive	
